No constants are given. Whether binding was seen depends on the method and setting. In cells and extracts the contact can be indirect. Some binding calls cover weakened binding; strength is not graded here.
Biological target: T1, PRMT7 (human (endogenous in TCam-2)) (UniProt Q9NVM4)
T1 sequence: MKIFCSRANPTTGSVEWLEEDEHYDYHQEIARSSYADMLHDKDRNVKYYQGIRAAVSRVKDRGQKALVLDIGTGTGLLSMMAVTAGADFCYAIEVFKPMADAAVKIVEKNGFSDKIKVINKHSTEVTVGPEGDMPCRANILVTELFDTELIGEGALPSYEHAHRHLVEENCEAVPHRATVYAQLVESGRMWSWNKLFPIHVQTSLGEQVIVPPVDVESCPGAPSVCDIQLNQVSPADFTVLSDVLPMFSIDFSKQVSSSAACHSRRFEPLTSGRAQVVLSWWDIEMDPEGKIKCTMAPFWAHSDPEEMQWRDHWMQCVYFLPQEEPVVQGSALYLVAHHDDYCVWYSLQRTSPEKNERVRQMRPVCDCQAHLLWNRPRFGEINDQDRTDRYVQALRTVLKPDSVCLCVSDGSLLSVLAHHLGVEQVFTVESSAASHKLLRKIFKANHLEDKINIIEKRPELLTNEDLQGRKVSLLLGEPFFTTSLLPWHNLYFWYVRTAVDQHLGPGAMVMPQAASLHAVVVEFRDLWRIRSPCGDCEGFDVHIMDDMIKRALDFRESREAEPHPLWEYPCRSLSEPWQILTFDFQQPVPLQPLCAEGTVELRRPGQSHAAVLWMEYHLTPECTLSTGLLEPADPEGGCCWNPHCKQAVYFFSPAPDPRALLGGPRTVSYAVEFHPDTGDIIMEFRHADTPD
Assay: co-IP; extracts from TCam-2 cells; Dynabeads; immunoprecipitation with anti-PRMT5 (1,5 ug) or anti-PRMT7 antibody, Western blot with anti-BLIMP1 antibody; no-antibody control

Chains of the proteins cited; added tags and fusions are not shown.
UniProt O75626: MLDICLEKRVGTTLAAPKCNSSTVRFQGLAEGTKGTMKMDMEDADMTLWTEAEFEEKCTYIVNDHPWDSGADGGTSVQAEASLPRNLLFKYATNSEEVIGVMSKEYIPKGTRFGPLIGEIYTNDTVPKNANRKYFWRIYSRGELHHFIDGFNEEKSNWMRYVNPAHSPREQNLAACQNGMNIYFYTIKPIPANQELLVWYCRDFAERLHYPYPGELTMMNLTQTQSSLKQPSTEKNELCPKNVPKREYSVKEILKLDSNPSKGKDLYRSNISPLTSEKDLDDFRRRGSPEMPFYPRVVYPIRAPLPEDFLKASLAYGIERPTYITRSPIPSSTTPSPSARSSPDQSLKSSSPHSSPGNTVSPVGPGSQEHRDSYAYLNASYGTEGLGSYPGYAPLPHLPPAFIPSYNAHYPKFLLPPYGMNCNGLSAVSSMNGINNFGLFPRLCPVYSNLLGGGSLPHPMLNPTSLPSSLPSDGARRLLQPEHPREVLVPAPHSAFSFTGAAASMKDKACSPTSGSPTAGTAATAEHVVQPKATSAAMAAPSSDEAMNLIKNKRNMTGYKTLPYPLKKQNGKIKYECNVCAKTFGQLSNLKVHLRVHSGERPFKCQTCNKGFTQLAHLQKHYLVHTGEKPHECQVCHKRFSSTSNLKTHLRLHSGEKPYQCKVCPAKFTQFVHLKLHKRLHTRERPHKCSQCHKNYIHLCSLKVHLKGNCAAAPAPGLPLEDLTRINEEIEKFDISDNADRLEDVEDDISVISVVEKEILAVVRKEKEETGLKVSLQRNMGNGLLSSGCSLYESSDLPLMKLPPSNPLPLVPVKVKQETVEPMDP

“BLIMP1 (B-Lymphocyte induced maturation protein-1; PRDM1) (from UniProt O75626 1-825)” was tested, and the binding was “binds”.
